Values from PubChem BioAssay AID1259254 (NCATS, 2017)

- Aim: 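Finding genes that stop cells copying their DNA twice in one cycle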 (primary screen)
- Cells: human HCT116 colorectal cancer cells
- Reagent: single siRNA against human genes
- Duration: 3 days
- Detection: 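Imaged Hoechst DNA stain sorts each cell into a cycle phase by DNA amount; per plate, G2 fraction set to 0% for non-targeting and 100% for GMNN siRNA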
- Scale: G2 robust z-score and G2 cells, % of GMNN control: higher = more G2 cells, more excess DNA replication; raw share of cells in G2: higher = larger share of cells with G2 DNA content
- Rule for the call: 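An siRNA counts as active if its G2 robust z-score lies at least 5 MADs above the screen median; here such calls match roughly 38% of GMNN control or more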
Shown is a random part of about 59,000 reagents tested. About 1,550 of them (2.6%) were called active. 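G2 share is only a proxy for re-replication; each gene was hit by three separate siRNAs, and active genes were retested.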 The raw values are shown without normalisation. Unmarked entries are inactive. Reagents against one gene are numbered here. The record does not give: the amount of reagent.

target gene,reagent,G2 robust z-score,"G2 cells, % of GMNN control",raw share of cells in G2 (%)
TVP23A (trans-golgi network vesicle protein 23 homolog A),1,0.94,9.58,7.9
TVP23A (trans-golgi network vesicle protein 23 homolog A),2,0.29,5.01,5.05
TVP23A (trans-golgi network vesicle protein 23 homolog A),3,-0.497,-0.531,2.78
CHST1 (carbohydrate sulfotransferase 1),1,0.0566,3.37,6.07
CHST1 (carbohydrate sulfotransferase 1),2,-0.805,-2.7,3.74
CHST1 (carbohydrate sulfotransferase 1),3,-0.116,2.15,6.02
UGT8 (UDP glycosyltransferase 8),1,-0.119,2.13,5.05
UGT8 (UDP glycosyltransferase 8),2,-0.665,-1.71,4.87
UGT8 (UDP glycosyltransferase 8),3,1.44,13.1,8.79
CLEC19A (C-type lectin domain containing 19A),1,-0.356,0.462,3.78
CLEC19A (C-type lectin domain containing 19A),2,0.575,7.02,6.2
CLEC19A (C-type lectin domain containing 19A),3,-0.934,-3.6,1.6
NOP58 (NOP58 ribonucleoprotein),1,2.66,21.7,12.3
NOP58 (NOP58 ribonucleoprotein),2,0.154,4.05,5.35
NOP58 (NOP58 ribonucleoprotein),3,2.9,23.3,16.5
RRAGA (Ras related GTP binding A),1,-1,-4.07,4.87
RRAGA (Ras related GTP binding A),2,-0.401,0.148,3.89
RRAGA (Ras related GTP binding A),3,-0.0223,2.81,6.92
SOHLH2,1,0.764,8.34,6.59
SOHLH2,2,0.467,6.25,6.9
SOHLH2,3,0.694,7.85,5.79
SENP7 (SUMO specific peptidase 7),1,2.27,18.9,11
SENP7 (SUMO specific peptidase 7),2,-0.282,0.986,4.58
SENP7 (SUMO specific peptidase 7),3,-0.691,-1.9,4.86
CATSPER2 (cation channel sperm associated 2),1,0.632,7.42,7.99
CATSPER2 (cation channel sperm associated 2),2,-0.792,-2.6,3.9
CATSPER2 (cation channel sperm associated 2),3,-0.878,-3.21,3.12
ADCY8 (adenylate cyclase 8),1,-1.36,-6.58,2.48
ADCY8 (adenylate cyclase 8),2,0.988,9.92,8.6
ADCY8 (adenylate cyclase 8),3,0.306,5.12,5.9
TIGD7 (tigger transposable element derived 7),1,1.34,12.4,11.4
TIGD7 (tigger transposable element derived 7),2,0.241,4.67,6.97
TIGD7 (tigger transposable element derived 7),3,-0.718,-2.09,3.69
KLF9 (KLF transcription factor 9),1,-0.669,-1.74,2.77
KLF9 (KLF transcription factor 9),2,2.82,22.8,15.5
KLF9 (KLF transcription factor 9),3,1.95,16.7,9.17
PDIK1L (PDLIM1 interacting kinase 1 like),1,-0.209,1.49,5.73
PDIK1L (PDLIM1 interacting kinase 1 like),2,-0.837,-2.92,4.68
PDIK1L (PDLIM1 interacting kinase 1 like),3,-1.44,-7.14,1.39
KIF2C (kinesin family member 2C),1,-0.162,1.83,4.43
KIF2C (kinesin family member 2C),2,-1.22,-5.6,3.26
KIF2C (kinesin family member 2C),3,-0.486,-0.454,6.3
DNTTIP1 (deoxynucleotidyltransferase terminal interacting protein 1),1,-0.522,-0.703,3.72
DNTTIP1 (deoxynucleotidyltransferase terminal interacting protein 1),2,2.81,22.8,13.3
DNTTIP1 (deoxynucleotidyltransferase terminal interacting protein 1),3,0.676,7.72,7.19
"BPNT2 (3'(2'), 5'-bisphosphate nucleotidase 2)",1,0.482,6.36,5.29
"BPNT2 (3'(2'), 5'-bisphosphate nucleotidase 2)",2,3.25,25.8,12.9
"BPNT2 (3'(2'), 5'-bisphosphate nucleotidase 2)",3,2.13,18,11.8
ZNF385C (zinc finger protein 385C),1,-0.648,-1.59,3.03
ZNF385C (zinc finger protein 385C),2,-0.271,1.06,3.31
ZNF385C (zinc finger protein 385C),3,-0.153,1.89,3.36
RPL27P8 (ribosomal protein L27 pseudogene 8),1,-0.434,-0.0882,3.89
RPL27P8 (ribosomal protein L27 pseudogene 8),2,-0.461,-0.274,3.23
RPL27P8 (ribosomal protein L27 pseudogene 8),3,-0.371,0.359,3.25
AKR1B15 (aldo-keto reductase family 1 member B15),1,1.45,13.2,8.71
AKR1B15 (aldo-keto reductase family 1 member B15),2,1.12,10.8,7.53
AKR1B15 (aldo-keto reductase family 1 member B15),3,0.481,6.35,5.28
SLC25A21,1,-0.24,1.28,4.96
SLC25A21,2,0.195,4.34,6.83
SLC25A21,3,0.24,4.65,7.83
OXCT2 (3-oxoacid CoA-transferase 2),1,-0.537,-0.809,5.31
OXCT2 (3-oxoacid CoA-transferase 2),2,0.0297,3.18,5.47
OXCT2 (3-oxoacid CoA-transferase 2),3,-0.788,-2.57,3.29
CCDC62 (coiled-coil domain containing 62),1,2.27,18.9,10.4
CCDC62 (coiled-coil domain containing 62),2,-0.515,-0.653,3.26
CCDC62 (coiled-coil domain containing 62),3,-0.56,-0.97,2.11
SKAP2 (src kinase associated phosphoprotein 2),1,-0.0374,2.7,6.33
SKAP2 (src kinase associated phosphoprotein 2),2,-0.444,-0.156,3.83
SKAP2 (src kinase associated phosphoprotein 2),3,-0.783,-2.54,2.45
FAM3C (FAM3 metabolism regulating signaling molecule C),1,-0.571,-1.05,4.86
FAM3C (FAM3 metabolism regulating signaling molecule C),2,-0.612,-1.34,3.38
FAM3C (FAM3 metabolism regulating signaling molecule C),3,1.32,12.3,7.87
TAX1BP1 (Tax1 binding protein 1),1,4.04,31.4,19
TAX1BP1 (Tax1 binding protein 1),2,0.661,7.62,6.92
TAX1BP1 (Tax1 binding protein 1),3,2.25,18.8,9.99
PTK2B (protein tyrosine kinase 2 beta),1,-0.911,-3.44,4.25
PTK2B (protein tyrosine kinase 2 beta),2,0.117,3.79,6.86
PTK2B (protein tyrosine kinase 2 beta),3,-0.291,0.917,4.35
EPB41L2 (erythrocyte membrane protein band 4.1 like 2),1,1.8,15.6,12.6
EPB41L2 (erythrocyte membrane protein band 4.1 like 2),2,2.11,17.8,10.6
EPB41L2 (erythrocyte membrane protein band 4.1 like 2),3,1.46,13.2,8.7
PPTC7 (protein phosphatase targeting COQ7),1,-0.119,2.13,4.94
PPTC7 (protein phosphatase targeting COQ7),2,-1.39,-6.8,2.59
PPTC7 (protein phosphatase targeting COQ7),3,1.72,15,8.03
AP2A1 (adaptor related protein complex 2 subunit alpha 1),1,0.992,9.95,8.61
AP2A1 (adaptor related protein complex 2 subunit alpha 1),2,0.704,7.92,7.42
AP2A1 (adaptor related protein complex 2 subunit alpha 1),3,0.265,4.83,5.79
